Test results: PMC5472764
Results are given in words; binding and its absence hold for the method and conditions named. In cells and extracts the contact can be indirect. Some results given as binding are weak or reduced against the parent protein; the word gives no strength. Where a sequence is shown, tags or fusion partners need not be part of it.

Target: T1, Flag-tagged Tespa1 in Jurkat cells (J-Tespa1) (mouse) (UniProt Q3U132)
T1 sequence: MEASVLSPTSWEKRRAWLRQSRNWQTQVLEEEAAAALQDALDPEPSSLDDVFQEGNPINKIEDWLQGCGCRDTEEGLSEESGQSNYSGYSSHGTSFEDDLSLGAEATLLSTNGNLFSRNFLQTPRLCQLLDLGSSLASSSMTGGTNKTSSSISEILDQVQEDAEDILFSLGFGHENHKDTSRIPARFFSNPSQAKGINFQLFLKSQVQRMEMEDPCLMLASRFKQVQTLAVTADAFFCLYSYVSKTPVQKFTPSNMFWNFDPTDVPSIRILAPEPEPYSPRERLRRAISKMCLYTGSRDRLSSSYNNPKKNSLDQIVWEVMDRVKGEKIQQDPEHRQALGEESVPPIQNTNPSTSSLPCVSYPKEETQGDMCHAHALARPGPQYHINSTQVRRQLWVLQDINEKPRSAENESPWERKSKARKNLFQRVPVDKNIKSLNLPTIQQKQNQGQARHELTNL
Assay: co-IP; Jurkat cells stably expressing Flag-tagged Tespa1 or Tespa1-F187A/F188A, unstimulated or stimulated with anti-CD3 and anti-CD28 for 5 or 10 min; NP-40 lysis buffer; anti-Flag beads; blots for the endogenous partner

B1: PLC-γ1, endogenous in Jurkat cells (enzyme, UniProt P19174 1-1290)
chain: MAGAASPCANGCGPGAPSDAEVLHLCRSLEVGTVMTLFYSKKSQRPERKTFQVKLETRQITWSRGADKIEGAIDIREIKEIRPGKTSRDFDRYQEDPAFRPDQSHCFVILYGMEFRLKTLSLQATSEDEVNMWIKGLTWLMEDTLQAPTPLQIERWLRKQFYSVDRNREDRISAKDLKNMLSQVNYRVPNMRFLRERLTDLEQRSGDITYGQFAQLYRSLMYSAQKTMDLPFLEASTLRAGERPELCRVSLPEFQQFLLDYQGELWAVDRLQVQEFMLSFLRDPLREIEEPYFFLDEFVTFLFSKENSVWNSQLDAVCPDTMNNPLSHYWISSSHNTYLTGDQFSSESSLEAYARCLRMGCRCIELDCWDGPDGMPVIYHGHTLTTKIKFSDVLHTIKEHAFVASEYPVILSIEDHCSIAQQRNMAQYFKKVLGDTLLTKPVEISADGLPSPNQLKRKILIKHKKLAEGSAYEEVPTSMMYSENDISNSIKNGILYLEDPVNHEWYPHYFVLTSSKIYYSEETSSDQGNEDEEEPKEVSSSTELHSNEKWFHGKLGAGRDGRHIAERLLTEYCIETGAPDGSFLVRESETFVGDYTLSFWRNGKVQHCRIHSRQDAGTPKFFLTDNLVFDSLYDLITHYQQVPLRCNEFEMRLSEPVPQTNAHESKEWYHASLTRAQAEHMLMRVPRDGAFLVRKRNEPNSYAISFRAEGKIKHCRVQQEGQTVMLGNSEFDSLVDLISYYEKHPLYRKMKLRYPINEEALEKIGTAEPDYGALYEGRNPGFYVEANPMPTFKCAVKALFDYKAQREDELTFIKSAIIQNVEKQEGGWWRGDYGGKKQLWFPSNYVEEMVNPVALEPEREHLDENSPLGDLLRGVLDVPACQIAIRPEGKNNRLFVFSISMASVAHWSLDVAADSQEELQDWVKKIREVAQTADARLTEGKIMERRKKIALELSELVVYCRPVPFDEEKIGTERACYRDMSSFPETKAEKYVNKAKGKKFLQYNRLQLSRIYPKGQRLDSSNYDPLPMWICGSQLVALNFQTPDKPMQMNQALFMTGRHCGYVLQPSTMRDEAFDPFDKSSLRGLEPCAISIEVLGARHLPKNGRGIVCPFVEIEVAGAEYDSTKQKTEFVVDNGLNPVWPAKPFHFQISNPEFAFLRFVVYEEDMFSDQNFLAQATFPVKGLKTGYRAVPLKNNYSEDLELASLLIKIDIFPAKENGDLSPFSGTSLRERGSDASGQLFHGRAREGSFESRYQQPFEDFRISQEHLADHFDSRERRAPRRTRVNGDNRL
  binding: binds
